# Data reported in patent US20090209473A1, “Componds and methods for pormoting angiogenesis” (priority 2003, published 2009).
# Test system: Oxygen-induced retinopathy mice
# Test: Oxygen-induced retinopathy mouse model, retinal whole mount analysis
# Type: in vivo
# Conditions: 100 mg/kg s.c. once daily days 12-16, versus control
# Source text: Oxygen-induced retinopathy mice were used to determine the extent and effect of gamma-secretase inhibitors on the angiogenic process. Mice with oxygen induced retinopathy (OIR mice) are a commonly-used model and are described in the literature (see, Smith et al, supra). They are at times referred to as retinopathy of prematurity models or ROP mice. The model takes advantage of the fact that full term mice pups are born with an immature retinal vascularization which matures during the first three weeks of postnatal growth. Briefly, neonatal mice (NMRI/C57b1) from the same litter were placed, with their nursing mother, in a hyperoxic environment (75% oxygen) at age day seven. After exposure to the hyperoxic environment for 5 days, the 12-day old pups were removed to normal air. In the treated mice, DAPT was administered once daily during age days 12-16. Control pups were treated the same way but injected with the vehicle. At post natal day 17 the mice were euthanized and the retinas were prepared for whole mount immunohistochemistry. Except for the mode of injection, the stock solution of DAPT was prepared and administered essentially as described in Lanz et al., (2003, J. Pharmacol. Exp. Ther. 305:864-71). […] This can be quantified in the superficial capillary plexus by counting the number of capillary enclosed areas in the peripheral part of the retina.
structure (smiles),measurement,value
C[C@H](NC(=O)Cc1cc(F)cc(F)c1)C(=O)N[C@H](C(=O)OC(C)(C)C)c1ccccc1 [DAPT],density of GFAP positive astrocytes in retina,Little if any difference
